Conditions: wild-type and Ins2Akita mice
[1] = sEH inhibitor from the age of 6 weeks

O=C(NC12CC3CC(CC(C3)C1)C2)N[C@H]1CC[C@H](Oc2ccc(C(=O)O)cc2)CC1 (relative stereo) [t-AUCB, trans-4-[4-(3-adamantan-1-ylureido)cyclohexyloxy]-benzoic acid]
did not affect: heart rate (assessed at the age of 12 months) | body weight [1] | fasting blood glucose [1]
